Test results: the supplement of paper PMC8728848
The list shows a part of the results.

Tests used:
Experiment in all cases: glycan array binding signal (z-score within array); higher = stronger binding
Settings in all cases: glycan notation: IUPAC condensed, linker removed
[1] = target: Gal(b1-4)GlcNAc(b1-3)Gal(b1-4)GlcNAc(b1-6)[Gal(b1-3)]GalNAc
In short: (§1)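 The binding signal is a Z-score computed within each array and averaged over linkers. Arrays of the same protein sequence at different concentrations or buffers were also averaged together. Data originate from 3228 arrays in the Consortium for Functional Glycomics database, kept only where the protein sequence was available.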

[2] = target: Gal(b1-4)GlcNAc(b1-3)Gal(b1-4)[Fuc(a1-3)]GlcNAc(b1-3)Gal(b1-4)[Fuc(a1-3)]GlcNAc
In short: as §1

[3] = target: Gal(b1-4)GlcNAc(b1-3)GalNAc
In short: as §1

[4] = target: Gal(b1-4)GlcNAc(b1-3)[Fuc(a1-3)GlcNAc(b1-6)]Gal(b1-4)Glc
In short: as §1

[5] = target: Gal(b1-4)GlcNAc(b1-3)[Gal(b1-4)GlcNAc(b1-6)]Gal(b1-4)GlcNAc
In short: as §1

[6] = target: Gal(b1-4)GlcNAc(b1-3)[GlcNAc(b1-6)]Gal(b1-4)GlcNAc
In short: as §1

[7] = target: Gal(b1-4)GlcNAc(b1-6)Gal(b1-4)GlcNAc
In short: as §1

[8] = target: Gal(b1-4)GlcNAc(b1-6)GalNAc
In short: as §1

[9] = target: Gal(b1-4)GlcNAc(b1-6)[Gal(b1-3)]GalNAc
In short: as §1

[10] = target: Gal(b1-4)GlcNAc(b1-6)[Gal(b1-4)GlcNAc(b1-3)]GalNAc
In short: as §1

Gal(b1-4)GlcNAc6P = target: Gal(b1-4)GlcNAc6P
In short: as §1

Gal(b1-6)Gal = target: Gal(b1-6)Gal
In short: as §1

Gal3S(b1-3)GalNAc = target: Gal3S(b1-3)GalNAc
In short: as §1

Gal3S(b1-3)GlcNAc = target: Gal3S(b1-3)GlcNAc
In short: as §1

[11] = target: Gal3S(b1-3)[Fuc(a1-4)]GlcNAc
In short: as §1

Gal3S(b1-4)Glc = target: Gal3S(b1-4)Glc
In short: as §1

Gal3S(b1-4)Glc6S = target: Gal3S(b1-4)Glc6S
In short: as §1

Gal3S(b1-4)GlcNAc = target: Gal3S(b1-4)GlcNAc
In short: as §1

[12] = target: Gal3S(b1-4)[Fuc(a1-3)]Glc6S
In short: as §1

[13] = target: Gal3S(b1-4)[Fuc(a1-3)]GlcNAc
In short: as §1

[14] = target: Gal3S(b1-4)[Fuc(a1-3)]GlcNAc6S
In short: as §1

Gal3S4S(b1-4)GlcNAc = target: Gal3S4S(b1-4)GlcNAc
In short: as §1

Gal3S6S(b1-4)GlcNAc = target: Gal3S6S(b1-4)GlcNAc
In short: as §1

Gal3S6S(b1-4)GlcNAc6S = target: Gal3S6S(b1-4)GlcNAc6S
In short: as §1

Gal4S(b1-4)GlcNAc = target: Gal4S(b1-4)GlcNAc
In short: as §1

Gal4S6S(b1-4)GlcNAc = target: Gal4S6S(b1-4)GlcNAc
In short: as §1

Gal6P(b1-4)GlcNAc = target: Gal6P(b1-4)GlcNAc
In short: as §1

Gal6S(b1-3)GlcNAc = target: Gal6S(b1-3)GlcNAc
In short: as §1

Gal6S(b1-3)GlcNAc6S = target: Gal6S(b1-3)GlcNAc6S
In short: as §1

Gal6S(b1-4)Glc = target: Gal6S(b1-4)Glc
In short: as §1

Gal6S(b1-4)Glc6S = target: Gal6S(b1-4)Glc6S
In short: as §1

Gal6S(b1-4)GlcNAc = target: Gal6S(b1-4)GlcNAc
In short: as §1

Gal6S(b1-4)GlcNAc6S = target: Gal6S(b1-4)GlcNAc6S
In short: as §1

GalNAc(a1-3)Gal = target: GalNAc(a1-3)Gal
In short: as §1

GalNAc(a1-3)GalNAc = target: GalNAc(a1-3)GalNAc
In short: as §1

[15] = target: GalNAc(a1-3)GalNAc(b1-3)Gal(a1-4)Gal(b1-4)Glc
In short: as §1

[16] = target: GalNAc(a1-3)GalNAc(b1-3)Gal(a1-4)Gal(b1-4)GlcNAc
In short: as §1

GalNAc(b1-3)Gal = target: GalNAc(b1-3)Gal
In short: as §1

[17] = target: GalNAc(b1-3)Gal(a1-4)Gal(b1-4)GlcNAc
In short: as §1

[18] = target: GalNAc(b1-3)Gal(a1-4)Gal(b1-4)GlcNAc(b1-3)Gal(b1-4)Glc
In short: as §1

[19] = target: GalNAc(b1-3)Gal(a1-6)Gal(b1-4)Glc
In short: as §1

GalNAc(b1-3)GalNAc = target: GalNAc(b1-3)GalNAc
In short: as §1

GalNAc(b1-3)GlcNAc = target: GalNAc(b1-3)GlcNAc
In short: as §1

GalNAc(b1-4)Gal(b1-4)Glc = target: GalNAc(b1-4)Gal(b1-4)Glc
In short: as §1

GalNAc(b1-4)GlcNAc = target: GalNAc(b1-4)GlcNAc
In short: as §1

B1: Mermaid1 (Stilbonema majum) (protein)
chain: MGSSHHHHHHSSGLVPRGSHMAASGWLRSPQGTVVKLYRRSLSWSKADEFCKDVDGRLVVDRTADMHLFLIKNVLKEKKSRVWVGLRRTAPHSRTWIWSDGTRQNEDDLDANLWLRDEPNDAAGEEECALFMYSPWEKAWGLNDYLCRGGCRSYQFICEKWIR
glycan array binding signal (z-score) [1]: -0.763
glycan array binding signal (z-score) [2]: -0.661
glycan array binding signal (z-score) [3]: -0.641
glycan array binding signal (z-score) [4]: -0.7
glycan array binding signal (z-score) [5]: -0.765
glycan array binding signal (z-score) [6]: 0.184
glycan array binding signal (z-score) [7]: -0.814
glycan array binding signal (z-score) [8]: 0.728
glycan array binding signal (z-score) [9]: 0.267
glycan array binding signal (z-score) [10]: -0.135
glycan array binding signal (z-score) (Gal(b1-4)GlcNAc6P): -0.81
glycan array binding signal (z-score) (Gal(b1-6)Gal): 0.106
glycan array binding signal (z-score) (Gal3S(b1-3)GalNAc): -0.374
glycan array binding signal (z-score) (Gal3S(b1-3)GlcNAc): 0.37
glycan array binding signal (z-score) [11]: 0.376
glycan array binding signal (z-score) (Gal3S(b1-4)Glc): 0.598
glycan array binding signal (z-score) (Gal3S(b1-4)Glc6S): 0.205
glycan array binding signal (z-score) (Gal3S(b1-4)GlcNAc): 0.353
glycan array binding signal (z-score) [12]: 1.84
glycan array binding signal (z-score) [13]: 0.074
glycan array binding signal (z-score) [14]: 0.091
glycan array binding signal (z-score) (Gal3S4S(b1-4)GlcNAc): -0.465
glycan array binding signal (z-score) (Gal3S6S(b1-4)GlcNAc): 0.646
glycan array binding signal (z-score) (Gal3S6S(b1-4)GlcNAc6S): -0.524
glycan array binding signal (z-score) (Gal4S(b1-4)GlcNAc): 1.03
glycan array binding signal (z-score) (Gal4S6S(b1-4)GlcNAc): 0.121
glycan array binding signal (z-score) (Gal6P(b1-4)GlcNAc): -0.911
glycan array binding signal (z-score) (Gal6S(b1-3)GlcNAc): -0.891
glycan array binding signal (z-score) (Gal6S(b1-3)GlcNAc6S): 0.285
glycan array binding signal (z-score) (Gal6S(b1-4)Glc): 0.101
glycan array binding signal (z-score) (Gal6S(b1-4)Glc6S): 0.986
glycan array binding signal (z-score) (Gal6S(b1-4)GlcNAc): -0.719
glycan array binding signal (z-score) (Gal6S(b1-4)GlcNAc6S): 0.081
glycan array binding signal (z-score) (GalNAc(a1-3)Gal): -0.641
glycan array binding signal (z-score) (GalNAc(a1-3)GalNAc): -0.917
glycan array binding signal (z-score) [15]: -0.428
glycan array binding signal (z-score) [16]: -0.41
glycan array binding signal (z-score) (GalNAc(b1-3)Gal): -0.447
glycan array binding signal (z-score) [17]: -0.239
glycan array binding signal (z-score) [18]: -0.026
glycan array binding signal (z-score) [19]: -0.59
glycan array binding signal (z-score) (GalNAc(b1-3)GalNAc): -0.091
glycan array binding signal (z-score) (GalNAc(b1-3)GlcNAc): -0.267
glycan array binding signal (z-score) (GalNAc(b1-4)Gal(b1-4)Glc): 1.51
glycan array binding signal (z-score) (GalNAc(b1-4)GlcNAc): 0.87
